Patent EP3837551B1 (Medizinische Hochschule Hannover, dated 2024)
Results are given in words; binding and its absence hold for the method and conditions named. Some binding calls cover weakened binding; strength is not graded here.

Amino acid sequences for entries named in this document (tags omitted). A change or cut given only in a name is not applied to a line headed by its entry.
UniProt P01024: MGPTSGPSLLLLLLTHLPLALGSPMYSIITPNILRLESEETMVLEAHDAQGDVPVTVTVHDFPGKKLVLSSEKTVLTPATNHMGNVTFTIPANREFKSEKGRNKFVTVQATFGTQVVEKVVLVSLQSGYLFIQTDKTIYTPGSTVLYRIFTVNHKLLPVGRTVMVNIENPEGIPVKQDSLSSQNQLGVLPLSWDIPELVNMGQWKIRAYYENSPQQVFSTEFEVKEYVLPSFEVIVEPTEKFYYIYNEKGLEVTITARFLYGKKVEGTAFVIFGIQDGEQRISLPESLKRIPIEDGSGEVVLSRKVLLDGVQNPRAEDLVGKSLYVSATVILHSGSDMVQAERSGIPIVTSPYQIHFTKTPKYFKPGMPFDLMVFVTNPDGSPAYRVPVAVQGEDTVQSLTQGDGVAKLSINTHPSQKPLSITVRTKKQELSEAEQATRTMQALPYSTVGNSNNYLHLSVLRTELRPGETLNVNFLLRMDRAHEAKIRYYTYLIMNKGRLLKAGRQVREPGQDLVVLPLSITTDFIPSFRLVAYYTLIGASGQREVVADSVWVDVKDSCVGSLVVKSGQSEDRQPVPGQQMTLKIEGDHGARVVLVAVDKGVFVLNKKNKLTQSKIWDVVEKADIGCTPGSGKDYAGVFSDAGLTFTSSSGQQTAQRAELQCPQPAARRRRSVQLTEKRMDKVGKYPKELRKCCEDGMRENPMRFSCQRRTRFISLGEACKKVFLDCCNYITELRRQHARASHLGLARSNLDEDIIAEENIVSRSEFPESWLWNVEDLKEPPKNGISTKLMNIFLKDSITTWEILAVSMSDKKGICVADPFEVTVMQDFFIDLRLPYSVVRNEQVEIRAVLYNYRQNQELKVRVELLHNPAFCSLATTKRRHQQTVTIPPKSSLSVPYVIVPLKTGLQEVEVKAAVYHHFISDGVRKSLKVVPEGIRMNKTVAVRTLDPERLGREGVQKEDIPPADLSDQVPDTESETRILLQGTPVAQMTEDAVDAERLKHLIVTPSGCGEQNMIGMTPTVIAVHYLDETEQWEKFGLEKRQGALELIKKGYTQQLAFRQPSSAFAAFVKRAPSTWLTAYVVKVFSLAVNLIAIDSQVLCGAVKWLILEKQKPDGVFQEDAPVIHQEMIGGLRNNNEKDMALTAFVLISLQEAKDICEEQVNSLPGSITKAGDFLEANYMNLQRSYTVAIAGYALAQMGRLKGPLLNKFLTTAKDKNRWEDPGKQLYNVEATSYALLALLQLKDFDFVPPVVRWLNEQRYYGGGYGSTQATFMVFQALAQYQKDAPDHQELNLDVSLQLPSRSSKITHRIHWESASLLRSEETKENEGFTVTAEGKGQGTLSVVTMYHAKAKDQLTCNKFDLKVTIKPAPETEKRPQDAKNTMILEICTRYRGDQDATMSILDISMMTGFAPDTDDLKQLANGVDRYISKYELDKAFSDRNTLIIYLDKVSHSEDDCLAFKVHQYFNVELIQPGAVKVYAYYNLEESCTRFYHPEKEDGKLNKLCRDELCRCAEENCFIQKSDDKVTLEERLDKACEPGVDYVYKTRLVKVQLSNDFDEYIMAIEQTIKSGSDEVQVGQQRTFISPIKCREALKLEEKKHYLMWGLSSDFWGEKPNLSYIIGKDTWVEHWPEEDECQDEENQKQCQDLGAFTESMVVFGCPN

What was measured:
[1] = biological target: C3b (UniProt P01024); experiment: C3b coated at 5 ug/mL, FHR1 at 10 ug/mL for 2 h, washed, then monocytes added
[2] = biological target: C3b (UniProt P01024); experiment: C3b coated at 5 ug/mL, FHR1 at 10 ug/mL (Figure 3d)

B1: Recombinant factor H related protein 1 (FHR1), expressed in Pichia pastoris (other, human, UniProt Q03591 19-330, looked up)
chain: EATFCDFPKINHGILYDEEKYKPFSQVPTGEVFYYSCEYNFVSPSKSFWTRITCTEEGWSPTPKCLRLCFFPFVENGHSESSGQTHLEGDTVQIICNTGYRLQNNENNISCVERGWSTPPKCRSTDTSCVNPPTVQNAHILSRQMSKYPSGERVRYECRSPYEMFGDEEVMCLNGNWTEPPQCKDSTGKCGPPPPIDNGDITSFPLSVYAPASSVEYQCQNLYQLEGNKRITCRNGQWSEPPKCLHPCVISREIMENYNIALRWTAKQKLYLRTGESAEFVCKRGYRLSSRSHTLRTTCWDGKLEYPTCAKR
notes: also called CFHR1; Complement Factor H-Related Protein 1
binding [1]: binds
binding [2]: binds
